From doi:10.1101/123703

Protein sequences, listed by entry. Tags and fused reporters are not part of them. Lines headed by an entry give the natural chain unless they say otherwise; changes in a name come on top.
UniProt Q9M310: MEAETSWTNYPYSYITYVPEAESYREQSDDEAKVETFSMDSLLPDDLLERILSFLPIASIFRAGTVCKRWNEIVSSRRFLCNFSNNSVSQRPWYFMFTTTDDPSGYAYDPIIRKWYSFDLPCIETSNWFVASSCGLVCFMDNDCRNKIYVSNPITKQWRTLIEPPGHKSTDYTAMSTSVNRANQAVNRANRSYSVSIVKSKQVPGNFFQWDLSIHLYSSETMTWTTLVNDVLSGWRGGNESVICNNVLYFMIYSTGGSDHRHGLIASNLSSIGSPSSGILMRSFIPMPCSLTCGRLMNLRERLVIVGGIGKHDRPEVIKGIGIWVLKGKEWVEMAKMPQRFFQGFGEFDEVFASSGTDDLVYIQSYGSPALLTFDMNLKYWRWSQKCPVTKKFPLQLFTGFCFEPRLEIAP

Molecular target: HWS, yeast two-hybrid fusion (Arabidopsis thaliana) (UniProt Q9M310)
Experiment: two-hybrid

- binding: no binding
B1: full-length AGO1, yeast two-hybrid fusion (protein, UniProt O04379 1-1048)
chain: MVRKRRTDAPSEGGEGSGSREAGPVSGGGRGSQRGGFQQGGGQHQGGRGYTPQPQQGGRGGRGYGQPPQQQQQYGGPQEYQGRGRGGPPHQGGRGGYGGGRGGGPSSGPPQRQSVPELHQATSPTYQAVSSQPTLSEVSPTQVPEPTVLAQQFEQLSVEQGAPSQAIQPIPSSSKAFKFPMRPGKGQSGKRCIVKANHFFAELPDKDLHHYDVTITPEVTSRGVNRAVMKQLVDNYRDSHLGSRLPAYDGRKSLYTAGPLPFNSKEFRINLLDEEVGAGGQRREREFKVVIKLVARADLHHLGMFLEGKQSDAPQEALQVLDIVLRELPTSRYIPVGRSFYSPDIGKKQSLGDGLESWRGFYQSIRPTQMGLSLNIDMSSTAFIEANPVIQFVCDLLNRDISSRPLSDADRVKIKKALRGVKVEVTHRGNMRRKYRISGLTAVATRELTFPVDERNTQKSVVEYFHETYGFRIQHTQLPCLQVGNSNRPNYLPMEVCKIVEGQRYSKRLNERQITALLKVTCQRPIDREKDILQTVQLNDYAKDNYAQEFGIKISTSLASVEARILPPPWLKYHESGREGTCLPQVGQWNMMNKKMINGGTVNNWICINFSRQVQDNLARTFCQELAQMCYVSGMAFNPEPVLPPVSARPEQVEKVLKTRYHDATSKLSQGKEIDLLIVILPDNNGSLYGDLKRICETELGIVSQCCLTKHVFKMSKQYMANVALKINVKVGGRNTVLVDALSRRIPLVSDRPTIIFGADVTHPHPGEDSSPSIAAVVASQDWPEITKYAGLVCAQAHRQELIQDLFKEWKDPQKGVVTGGMIKELLIAFRRSTGHKPLRIIFYRDGVSEGQFYQVLLYELDAIRKACASLEAGYQPPVTFVVVQKRHHTRLFAQNHNDRHSVDRSGNILPGTVVDSKICHPTEFDFYLCSHAGIQGTSRPAHYHVLWDENNFTADGLQSLTNNLCYTYARCTRSVSIVPPAYYAHLAAFRARFYMEPETSDSGSMASGSMARGGGMAGRSTRGPNVNAAVRPLPALKENVKRVMFYC

No constants are given. Whether binding was seen depends on the method and setting. Where a sequence is shown, tags or fusion partners need not be part of it.
